The target of experiment [1] is Myc epitope-tagged NIK (UniProt Q99558). Briefly: restates the coimmunoprecipitation result.
The target is the same in experiment [2]. Briefly: coimmunoprecipitation from 293 cell lysates.

Chains of the proteins cited; added tags and fusions are not shown.
UniProt Q99558: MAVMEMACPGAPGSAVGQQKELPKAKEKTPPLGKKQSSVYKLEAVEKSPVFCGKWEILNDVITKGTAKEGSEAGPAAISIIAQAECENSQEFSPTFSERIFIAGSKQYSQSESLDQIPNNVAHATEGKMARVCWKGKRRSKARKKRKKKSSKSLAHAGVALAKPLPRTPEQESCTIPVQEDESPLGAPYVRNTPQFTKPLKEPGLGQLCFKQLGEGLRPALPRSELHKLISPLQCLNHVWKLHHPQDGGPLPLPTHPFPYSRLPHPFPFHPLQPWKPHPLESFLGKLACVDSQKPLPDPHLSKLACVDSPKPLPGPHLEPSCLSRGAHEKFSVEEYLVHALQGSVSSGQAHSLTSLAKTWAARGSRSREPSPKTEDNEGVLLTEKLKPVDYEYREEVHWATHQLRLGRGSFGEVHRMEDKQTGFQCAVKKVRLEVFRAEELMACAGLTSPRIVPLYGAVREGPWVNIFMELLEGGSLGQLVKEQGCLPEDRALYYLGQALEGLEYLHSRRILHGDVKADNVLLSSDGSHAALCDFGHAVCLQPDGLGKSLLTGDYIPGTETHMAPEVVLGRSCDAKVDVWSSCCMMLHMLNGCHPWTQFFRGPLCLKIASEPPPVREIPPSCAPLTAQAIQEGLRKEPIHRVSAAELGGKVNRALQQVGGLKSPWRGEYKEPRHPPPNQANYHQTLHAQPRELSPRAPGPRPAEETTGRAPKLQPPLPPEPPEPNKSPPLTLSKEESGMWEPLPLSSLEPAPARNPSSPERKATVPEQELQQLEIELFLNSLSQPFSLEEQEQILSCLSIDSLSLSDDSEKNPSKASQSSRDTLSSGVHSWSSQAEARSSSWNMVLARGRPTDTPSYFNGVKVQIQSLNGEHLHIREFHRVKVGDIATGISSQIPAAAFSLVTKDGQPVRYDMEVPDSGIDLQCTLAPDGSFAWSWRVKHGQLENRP

No constants are given. Whether binding was seen depends on the method and setting. Binding seen in cells or lysates may run through a third protein. Some entries that bind do so weakly or less than the wild type.

B1: IKK-α(307-745) (enzyme)
chain: ILNLKIVHILNMTSAKIISFLLPPDESLHSLQSRIERETGINTGSQELLSETGISLDPRKPASQCVLDGVRGCDSYMVYLFDKSKTVYEGPFASRSLSDCVNYIVQDSKIQLPIIQLRKVWAEAVHYVSGLKEDYSRLFQGQRAAMLSLLRYNANLTKMKNTLISASQQLKAKLEFFHKSIQLDLERYSEQMTYGISSEKMLKAWKEMEEKAIHYAEVGVIGYLEDQIMSLHAEIMELQKSPYGRRQGDLMESLEQRAIDLYKQLKHRPSDHSYSDSTEMVKIIVHTVQSQDRVLKELFGHLSKLLGCKQKIIDLLPKVEVALSNIKEADNTVMFMQGKRQKEIWHLLKIACTQSSARSLVGSSLEGAVTPQTSAWLPPTSAEHDHSLSCVVTPQDGETSAQMIEENLNCLGHLSTIIHEANEEQGNSMMNLDWSWLTE
For B1, the binding entry with Myc epitope-tagged NIK [1] and in the experiment with Myc epitope-tagged NIK [2] was “binds” in each case.

The values are drawn from patent US7045613.
